{
  "sequences": {"note": "Sequences of proteins named here, by UniProt entry; tags and fusion partners are left off. A change or cut given only in a name is not applied to a line headed by its entry.", "UniProt Q54IX5": "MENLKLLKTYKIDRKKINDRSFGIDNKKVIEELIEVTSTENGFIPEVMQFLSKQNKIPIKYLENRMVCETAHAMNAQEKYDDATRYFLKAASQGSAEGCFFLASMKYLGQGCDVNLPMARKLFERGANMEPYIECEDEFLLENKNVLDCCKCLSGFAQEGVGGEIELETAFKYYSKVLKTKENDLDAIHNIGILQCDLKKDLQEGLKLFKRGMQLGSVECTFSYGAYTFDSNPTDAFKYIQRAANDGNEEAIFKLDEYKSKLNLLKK"},
  "source": "paper PMC4859692",
  "key": {"[1]": {"target": "T1, Ino1-RFP (Dictyostelium inositol-3-phosphate synthase with a C-terminal RFP tag) (Dictyostelium discoideum) (UniProt Q54N49)", "T1 sequence": "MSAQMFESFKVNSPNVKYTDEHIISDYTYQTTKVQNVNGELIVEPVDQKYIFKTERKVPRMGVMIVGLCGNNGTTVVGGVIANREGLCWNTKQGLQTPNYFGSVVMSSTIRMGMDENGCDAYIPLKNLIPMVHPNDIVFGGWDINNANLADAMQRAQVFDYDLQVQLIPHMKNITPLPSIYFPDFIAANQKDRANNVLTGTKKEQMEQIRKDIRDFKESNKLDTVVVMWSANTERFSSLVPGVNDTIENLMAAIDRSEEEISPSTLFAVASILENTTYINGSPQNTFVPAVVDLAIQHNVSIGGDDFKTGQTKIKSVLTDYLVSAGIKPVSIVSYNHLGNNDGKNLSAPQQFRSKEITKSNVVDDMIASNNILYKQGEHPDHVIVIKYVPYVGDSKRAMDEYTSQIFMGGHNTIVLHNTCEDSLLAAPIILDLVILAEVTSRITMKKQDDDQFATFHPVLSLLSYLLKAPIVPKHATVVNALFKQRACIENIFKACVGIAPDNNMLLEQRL", "assay": "co-IP; ino1- cells coexpressing Ino1-RFP and a FLAG-tagged protein; lysate on anti-RFP-coated (RFP-Trap) beads, 1 h at 4°C; Western blot with anti-RFP and anti-FLAG M2"}, "[2]": {"target": "GFP-tagged Q54IX5 (Dictyostelium discoideum) (UniProt Q54IX5)", "assay": "co-IP; reverse: ino1- cells coexpressing Ino1-RFP (or mRFPmars only as control) and GFP-Q54IX5; lysate on anti-GFP-coated (GFP-Trap) beads, 1 h at 4°C; Western blot with anti-GFP and anti-RFP"}},
  "note": "These are yes or no findings as the source states them, for the method shown. Binding seen in cells or lysates may run through a third protein. A result given as binding can be weak or reduced; the word gives no strength. Where a sequence is shown, tags or fusion partners need not be part of it.",
  "data": [
    {"molecule": "FLAG-tagged Q54IX5 (from UniProt Q54IX5)", "values": [
      {"measurement": "binding", "setting": "[1]", "value": "binds"}
    ]},
    {"molecule": "Ino1-RFP (Dictyostelium inositol-3-phosphate synthase with a C-terminal RFP tag) (enzyme, UniProt Q54N49 1-511) MSAQMFESFKVNSPNVKYTDEHIISDYTYQTTKVQNVNGELIVEPVDQKYIFKTERKVPRMGVMIVGLCGNNGTTVVGGVIANREGLCWNTKQGLQTPNYFGSVVMSSTIRMGMDENGCDAYIPLKNLIPMVHPNDIVFGGWDINNANLADAMQRAQVFDYDLQVQLIPHMKNITPLPSIYFPDFIAANQKDRANNVLTGTKKEQMEQIRKDIRDFKESNKLDTVVVMWSANTERFSSLVPGVNDTIENLMAAIDRSEEEISPSTLFAVASILENTTYINGSPQNTFVPAVVDLAIQHNVSIGGDDFKTGQTKIKSVLTDYLVSAGIKPVSIVSYNHLGNNDGKNLSAPQQFRSKEITKSNVVDDMIASNNILYKQGEHPDHVIVIKYVPYVGDSKRAMDEYTSQIFMGGHNTIVLHNTCEDSLLAAPIILDLVILAEVTSRITMKKQDDDQFATFHPVLSLLSYLLKAPIVPKHATVVNALFKQRACIENIFKACVGIAPDNNMLLEQRL", "values": [
      {"measurement": "binding", "setting": "[2]", "value": "binds"}
    ]}
  ]
}
